We go through 1 substance from doi:10.1101/2020.12.02.407650.

Sequences of proteins named here, by UniProt entry; tags and fusion partners are left off.
UniProt P37238: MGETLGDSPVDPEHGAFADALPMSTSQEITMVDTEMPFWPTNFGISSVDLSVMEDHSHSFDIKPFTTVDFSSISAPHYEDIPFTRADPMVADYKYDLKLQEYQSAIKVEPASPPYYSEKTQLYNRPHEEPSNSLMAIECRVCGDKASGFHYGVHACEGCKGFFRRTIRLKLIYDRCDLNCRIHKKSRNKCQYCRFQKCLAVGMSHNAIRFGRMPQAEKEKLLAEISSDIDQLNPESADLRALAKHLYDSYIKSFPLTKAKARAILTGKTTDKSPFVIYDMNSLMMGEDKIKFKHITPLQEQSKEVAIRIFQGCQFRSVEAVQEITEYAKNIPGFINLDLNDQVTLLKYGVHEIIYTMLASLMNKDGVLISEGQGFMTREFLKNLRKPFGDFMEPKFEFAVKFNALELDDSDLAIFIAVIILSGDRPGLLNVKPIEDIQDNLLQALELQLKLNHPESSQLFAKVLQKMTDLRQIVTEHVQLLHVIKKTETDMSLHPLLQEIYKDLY

No constants are given. Whether binding was seen depends on the method and setting. Binding seen in cells or lysates may run through a third protein. Some binding calls cover weakened binding; strength is not graded here.

The target of this assay is T1, PPARγ coactivator-1α (PGC-1α) (mouse (endogenous in brown and white adipocytes from mouse SVFs)) (UniProt O70343).
T1 sequence: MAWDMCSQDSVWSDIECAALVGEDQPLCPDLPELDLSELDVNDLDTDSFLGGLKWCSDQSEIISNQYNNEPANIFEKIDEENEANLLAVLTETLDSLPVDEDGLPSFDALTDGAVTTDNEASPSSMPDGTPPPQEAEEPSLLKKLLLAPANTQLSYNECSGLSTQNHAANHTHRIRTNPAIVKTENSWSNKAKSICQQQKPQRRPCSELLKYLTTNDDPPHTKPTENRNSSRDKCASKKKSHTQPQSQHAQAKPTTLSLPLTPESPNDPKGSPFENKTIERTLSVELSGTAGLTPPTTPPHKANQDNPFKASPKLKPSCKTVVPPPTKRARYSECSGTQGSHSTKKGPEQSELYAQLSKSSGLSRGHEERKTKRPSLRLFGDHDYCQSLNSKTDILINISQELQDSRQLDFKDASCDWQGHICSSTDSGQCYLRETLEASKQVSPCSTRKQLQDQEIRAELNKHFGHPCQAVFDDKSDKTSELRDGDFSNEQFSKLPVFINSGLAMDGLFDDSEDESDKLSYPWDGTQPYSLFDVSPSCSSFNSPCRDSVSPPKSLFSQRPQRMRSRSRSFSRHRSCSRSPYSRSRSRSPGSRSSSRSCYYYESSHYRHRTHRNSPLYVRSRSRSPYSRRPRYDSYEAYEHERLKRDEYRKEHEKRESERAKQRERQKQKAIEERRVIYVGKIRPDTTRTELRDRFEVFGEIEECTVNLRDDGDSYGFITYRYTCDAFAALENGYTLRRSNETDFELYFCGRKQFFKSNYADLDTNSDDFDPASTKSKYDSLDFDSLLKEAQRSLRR
The experiment in a line: co-IP.

Regarding “peroxisome proliferator-activated receptor gamma (PPARγ) (from UniProt P37238 1-505)”, the binding result is recorded as “binds”.
